Holding throughout (details): remark: other sources report otherwise
The target of experiment [1] is EZH2 (human (endogenous in HepG2 and SW480)), Q15910. Description: co-IP; endogenous proteins from SW480 cells; IgG as negative control; immunoblot.
Experiment [2] has the same target. As to the kind of experiment: co-IP; endogenous proteins from cell lysates (cell line not stated); USP7 antibody or EZH2 antibody; cells without and with shUSP7 or shEZH2 knock-down; IgG as negative control; immunoblot.
Experiment [3] has the same target. As to the kind of experiment: co-IP; endogenous proteins from HepG2 nuclear extracts; antibody against EZH2, LSD1 or HDAC1 on protein G-sepharose, overnight at 4°C, washed in TBST (pH 7.2, 25 mM Tris-HCl, 150 mM NaCl, 0.5% Tween-20); IgG as negative control; immunoblot.

Results are given in words; binding and its absence hold for the method and conditions named. In cells and extracts the contact can be indirect. Some entries that bind do so weakly or less than the wild type.

We go through 2 molecules from article PMC6510286.

B1: SMAD2, Q15796 1-467 (protein)
chain: MSSILPFTPPVVKRLLGWKKSAGGSGGAGGGEQNGQEEKWCEKAVKSLVKKLKKTGRLDELEKAITTQNCNTKCVTIPSTCSEIWGLSTPNTIDQWDTTGLYSFSEQTRSLDGRLQVSHRKGLPHVIYCRLWRWPDLHSHHELKAIENCEYAFNLKKDEVCVNPYHYQRVETPVLPPVLVPRHTEILTELPPLDDYTHSIPENTNFPAGIEPQSNYIPETPPPGYISEDGETSDQQLNQSMDTGSPAELSPTTLSPVNHSLDLQPVTYSEPAFWCSIAYYELNQRVGETFHASQPSLTVDGFTDPSNSERFCLGLLSNVNRNATVEMTRRHIGRGVRLYYIGGEVFAECLSDSAIFVQSPNCNQRYGWHPATVCKIPPGCNLKIFNNQEFAALLAQSVNQGFEAVYQLTRMCTIRMSFVKGWGAEYRRQTVTSTPCWIELHLNGPLQWLDKVLTQMGSPSVRCSSMS
Regarding B1, the binding result in experiment [1], in experiment [2] and in experiment [3] was “binds” throughout.

B2: SMAD4, Q13485 1-552 (protein)
chain: MDNMSITNTPTSNDACLSIVHSLMCHRQGGESETFAKRAIESLVKKLKEKKDELDSLITAITTNGAHPSKCVTIQRTLDGRLQVAGRKGFPHVIYARLWRWPDLHKNELKHVKYCQYAFDLKCDSVCVNPYHYERVVSPGIDLSGLTLQSNAPSSMMVKDEYVHDFEGQPSLSTEGHSIQTIQHPPSNRASTETYSTPALLAPSESNATSTANFPNIPVASTSQPASILGGSHSEGLLQIASGPQPGQQQNGFTGQPATYHHNSTTTWTGSRTAPYTPNLPHHQNGHLQHHPPMPPHPGHYWPVHNELAFQPPISNHPAPEYWCSIAYFEMDVQVGETFKVPSSCPIVTVDGYVDPSGGDRFCLGQLSNVHRTEAIERARLHIGKGVQLECKGEGDVWVRCLSDHAVFVQSYYLDREAGRAPGDAVHKIYPSAYIKVFDLRQCHRQMQQQAATAQAAAAAQAAAVAGNIPGPGSVGGIAPAISLSAAAGIGVDDLRRLCILRMSFVKGWGPDYPRQSIKETPCWIEIHLHRALQLLDEVLHTMPIADPQPLD
As for B2, the binding entry in experiment [1] and in experiment [2] was “binds” throughout.
